Assay results: publication PMC6411009
These are yes or no findings as the source states them, for the method shown. For part of these data: In cells and extracts the contact can be indirect. Some binding calls cover weakened binding; strength is not graded here.

Sequences of proteins named here, by UniProt entry; tags and fusion partners are left off.
UniProt P09874: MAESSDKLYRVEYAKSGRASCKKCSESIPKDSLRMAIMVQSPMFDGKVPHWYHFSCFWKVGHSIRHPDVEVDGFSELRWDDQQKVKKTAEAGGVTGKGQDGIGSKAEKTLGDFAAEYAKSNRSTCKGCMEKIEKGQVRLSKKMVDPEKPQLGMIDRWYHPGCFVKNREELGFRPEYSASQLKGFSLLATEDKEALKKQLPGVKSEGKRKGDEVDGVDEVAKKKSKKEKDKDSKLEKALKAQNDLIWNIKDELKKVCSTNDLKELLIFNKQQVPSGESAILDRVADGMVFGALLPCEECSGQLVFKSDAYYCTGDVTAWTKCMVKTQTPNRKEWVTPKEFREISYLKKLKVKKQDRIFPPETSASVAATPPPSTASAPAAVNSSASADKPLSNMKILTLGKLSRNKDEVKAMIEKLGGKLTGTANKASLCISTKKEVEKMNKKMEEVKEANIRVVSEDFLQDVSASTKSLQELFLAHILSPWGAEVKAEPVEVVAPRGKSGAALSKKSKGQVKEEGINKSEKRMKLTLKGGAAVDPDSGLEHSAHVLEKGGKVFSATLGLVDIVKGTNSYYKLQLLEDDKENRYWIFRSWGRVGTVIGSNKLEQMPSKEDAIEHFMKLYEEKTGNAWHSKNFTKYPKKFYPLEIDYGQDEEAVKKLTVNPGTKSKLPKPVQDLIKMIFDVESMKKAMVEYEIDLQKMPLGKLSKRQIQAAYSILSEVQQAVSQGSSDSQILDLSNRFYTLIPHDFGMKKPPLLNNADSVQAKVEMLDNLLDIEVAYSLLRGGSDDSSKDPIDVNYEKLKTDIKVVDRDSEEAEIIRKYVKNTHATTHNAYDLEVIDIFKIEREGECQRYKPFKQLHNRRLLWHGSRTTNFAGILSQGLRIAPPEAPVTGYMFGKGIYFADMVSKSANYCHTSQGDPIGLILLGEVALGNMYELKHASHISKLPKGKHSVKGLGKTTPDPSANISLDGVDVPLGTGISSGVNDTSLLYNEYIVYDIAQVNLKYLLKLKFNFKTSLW

Assays:
GST-BRN2 wild type = GST-BRN2 wild type (UniProt P31360); assay: pull-down; GST pull-down: 500 ng of GST-BRN2 (wild type or ΔN) coupled to glutathione beads, His-Ku70/Ku80 or 750 ng of PARP1 added for 20 min at room temperature in GSTB buffer (20 mM KPO4 pH 7.4, 0.5 mM EDTA, 10% glycerol, 0.5% NP40, 1 mM DTT, 150 mM KCl, 1 mg/mL BSA); four washes; Western blot for HIS-tagged Ku70 or PARP1; both purified
[1] = biological target: Flag epitope-tagged BRN2 wild type (UniProt P31360); assay: co-IP; anti-Flag M2 magnetic beads, 2 h at 4°C, lysis buffer (50 mM Hepes-NaOH pH 8.0, 100 mM KCl, 2 mM EDTA, 0.1% NP40, 10% glycerol), benzonase-treated lysate, five washes, Western blot

binding (GST-BRN2 wild type) | binding [1] | Substance
binds |  | His-Ku70/Ku80 complex (from UniProt P12956 1-609; P13010 1-732)
binds |  | PARP1 (purified recombinant) (from UniProt P09874 1-1014) (enzyme)
 | binds | Ku80 (XRCC5), endogenous (from UniProt P13010 1-732)
